Source: publication PMC7841167
No constants are given. Whether binding was seen depends on the method and setting. In cells and extracts the contact can be indirect. A yes stands for co-enrichment or nearness to the bait. Other partners may have been found. Where a sequence is shown, tags or fusion partners need not be part of it.

Sequences of proteins named here, by UniProt entry; tags and fusion partners are left off.
UniProt Q8VEK3: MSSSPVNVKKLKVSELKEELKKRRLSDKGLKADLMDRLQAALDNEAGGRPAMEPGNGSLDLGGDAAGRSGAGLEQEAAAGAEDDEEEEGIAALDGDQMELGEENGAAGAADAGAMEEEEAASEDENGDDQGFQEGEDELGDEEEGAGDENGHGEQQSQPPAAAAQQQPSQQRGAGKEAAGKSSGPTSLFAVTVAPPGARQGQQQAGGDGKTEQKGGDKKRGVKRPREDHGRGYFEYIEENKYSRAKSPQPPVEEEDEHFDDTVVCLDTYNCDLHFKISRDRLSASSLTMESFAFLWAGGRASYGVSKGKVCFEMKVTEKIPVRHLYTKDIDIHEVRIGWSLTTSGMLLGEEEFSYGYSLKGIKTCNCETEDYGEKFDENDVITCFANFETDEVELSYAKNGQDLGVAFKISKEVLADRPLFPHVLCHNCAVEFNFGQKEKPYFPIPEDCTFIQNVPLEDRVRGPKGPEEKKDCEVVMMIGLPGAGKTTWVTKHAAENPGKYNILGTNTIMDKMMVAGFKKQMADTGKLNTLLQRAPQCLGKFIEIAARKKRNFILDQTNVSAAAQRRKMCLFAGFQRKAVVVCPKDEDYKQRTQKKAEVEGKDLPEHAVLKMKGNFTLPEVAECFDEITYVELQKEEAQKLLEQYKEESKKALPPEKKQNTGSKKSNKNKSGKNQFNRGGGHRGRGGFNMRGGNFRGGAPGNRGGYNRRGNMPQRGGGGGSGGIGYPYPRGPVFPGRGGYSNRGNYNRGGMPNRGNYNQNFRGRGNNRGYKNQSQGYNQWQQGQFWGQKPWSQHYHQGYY
UniProt Q5SF07: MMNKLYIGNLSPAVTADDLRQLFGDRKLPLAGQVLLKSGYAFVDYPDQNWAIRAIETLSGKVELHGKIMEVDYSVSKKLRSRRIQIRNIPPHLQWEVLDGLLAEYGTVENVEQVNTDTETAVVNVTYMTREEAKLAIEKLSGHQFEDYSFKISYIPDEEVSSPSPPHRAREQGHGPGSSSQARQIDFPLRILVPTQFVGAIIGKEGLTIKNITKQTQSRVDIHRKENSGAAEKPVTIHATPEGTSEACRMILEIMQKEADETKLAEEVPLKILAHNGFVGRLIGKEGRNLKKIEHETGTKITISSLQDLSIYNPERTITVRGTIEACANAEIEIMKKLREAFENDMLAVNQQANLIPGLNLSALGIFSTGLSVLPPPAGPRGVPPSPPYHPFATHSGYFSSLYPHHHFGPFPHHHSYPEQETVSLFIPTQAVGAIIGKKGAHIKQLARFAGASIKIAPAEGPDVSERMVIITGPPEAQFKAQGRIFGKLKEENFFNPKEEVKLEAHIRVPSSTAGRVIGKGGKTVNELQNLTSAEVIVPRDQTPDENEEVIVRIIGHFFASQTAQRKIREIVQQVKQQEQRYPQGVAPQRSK

Target: T1, Lin28a-Flag (mouse) (UniProt Q8K3Y3)
T1 sequence: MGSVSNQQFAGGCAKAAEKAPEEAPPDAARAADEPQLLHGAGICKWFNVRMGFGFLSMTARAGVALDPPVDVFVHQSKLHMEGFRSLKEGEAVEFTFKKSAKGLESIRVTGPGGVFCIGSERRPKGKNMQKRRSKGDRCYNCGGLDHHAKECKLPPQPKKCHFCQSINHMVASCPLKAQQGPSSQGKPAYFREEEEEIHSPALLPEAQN
Test: affinity purification with mass spectrometry; lysate (polysome lysis buffer) of EpiLCs transfected with Lin28a-Flag run on Superose 6 Increase 10/300 GL (KCl 100 mM, TrisCl pH 7.8 20 mM, MgCl2 5 mM); Lin28a-containing fractions immunoprecipitated with anti-Flag affinity gel; nanoLC-ESI-Q-Orbitrap-MS/MS; mock-transfected cells as background; a parallel run with lysate pretreated with 40 µg/ml RNase A

binding | Substance
binds | Hnrnpk (from UniProt P61979 1-463)
binds | Hnrnpu (from UniProt Q8VEK3 1-800)
binds | Igf2bp2 (from UniProt Q5SF07 1-592)
